# Reference: PMC5514891
# Residue numbers refer to the chain shown, from its start. In names and notes the source's numbering stands. Results are given in words; binding and its absence hold for the method and conditions named. Binding seen in cells or lysates may run through a third protein. Some binding calls cover weakened binding; strength is not graded here.
# T1: RARα2 (pcDNA3-RARα2, transfected in COS-7 cells) (human (RARα2 cDNA amplified from NB4 cells)) (UniProt P10276)
# T1 sequence: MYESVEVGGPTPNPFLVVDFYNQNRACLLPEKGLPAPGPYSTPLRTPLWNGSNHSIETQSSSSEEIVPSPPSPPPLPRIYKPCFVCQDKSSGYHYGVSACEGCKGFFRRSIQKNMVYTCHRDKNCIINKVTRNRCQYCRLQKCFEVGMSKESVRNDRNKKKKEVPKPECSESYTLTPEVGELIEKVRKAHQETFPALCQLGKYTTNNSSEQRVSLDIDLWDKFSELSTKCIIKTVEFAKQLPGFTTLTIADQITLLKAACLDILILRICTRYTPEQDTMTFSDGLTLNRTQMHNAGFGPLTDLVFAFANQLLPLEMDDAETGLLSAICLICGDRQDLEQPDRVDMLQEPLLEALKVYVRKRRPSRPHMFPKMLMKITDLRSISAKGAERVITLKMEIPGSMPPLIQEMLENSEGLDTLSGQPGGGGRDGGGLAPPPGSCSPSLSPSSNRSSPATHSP
# B1: RARα1-I396E mutant (protein, UniProt P10276 1-462)
# chain: MASNSSSCPTPGGGHLNGYPVPPYAFFFPPMLGGLSPPGALTTLQHQLPVSGYSTPSPATIETQSSSSEEIVPSPPSPPPLPRIYKPCFVCQDKSSGYHYGVSACEGCKGFFRRSIQKNMVYTCHRDKNCIINKVTRNRCQYCRLQKCFEVGMSKESVRNDRNKKKKEVPKPECSESYTLTPEVGELIEKVRKAHQETFPALCQLGKYTTNNSSEQRVSLDIDLWDKFSELSTKCIIKTVEFAKQLPGFTTLTIADQITLLKAACLDILILRICTRYTPEQDTMTFSDGLTLNRTQMHNAGFGPLTDLVFAFANQLLPLEMDDAETGLLSAICLICGDRQDLEQPDRVDMLQEPLLEALKVYVRKRRPSRPHMFPKMLMKITDLRSISAKGAERVETLKMEIPGSMPPLIQEMLENSEGLDTLSGQPGGGGRDGGGLAPPPGSCSPSLSPSSNRSSPATHSP
# B2: RARα1-S369A mutant (protein, UniProt P10276 1-462)
# chain: B1 chain with S369A, E396I
# B3: RARα1-S157A mutant (protein, UniProt P10276 1-462)
# chain: B1 chain with S157A, E396I
# Target: T1, RARα2 (pcDNA3-RARα2, transfected in COS-7 cells) (human (RARα2 cDNA amplified from NB4 cells))
# Test: co-IP; COS-7 cells co-transfected, treated with vehicle or ATRA (1 uM) for 4 hours; extracts immuno-precipitated with anti-RARα2 antibodies on Protein-G-sepharose; Western blot with anti-RARα antibody RP alpha (F)
row,binding,Binder
1,binds,B1
2,no binding,B2
3,binds,B3
